Test results from article PMC8631662.

Chains of the proteins cited; added tags and fusions are not shown. Residues count along the entry.
UniProt P17742: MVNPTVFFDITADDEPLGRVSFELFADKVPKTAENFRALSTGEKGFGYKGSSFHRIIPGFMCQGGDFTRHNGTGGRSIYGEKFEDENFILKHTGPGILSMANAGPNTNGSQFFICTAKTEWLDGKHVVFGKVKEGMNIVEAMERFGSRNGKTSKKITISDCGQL
UniProt P61264: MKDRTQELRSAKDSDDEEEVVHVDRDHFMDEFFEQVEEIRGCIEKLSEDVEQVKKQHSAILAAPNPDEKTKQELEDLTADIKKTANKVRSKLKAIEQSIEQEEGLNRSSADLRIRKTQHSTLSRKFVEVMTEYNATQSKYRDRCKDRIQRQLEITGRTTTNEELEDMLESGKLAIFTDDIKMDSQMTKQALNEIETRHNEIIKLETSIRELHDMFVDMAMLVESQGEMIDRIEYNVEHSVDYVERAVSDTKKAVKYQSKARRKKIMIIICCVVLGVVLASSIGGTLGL
UniProt P46096: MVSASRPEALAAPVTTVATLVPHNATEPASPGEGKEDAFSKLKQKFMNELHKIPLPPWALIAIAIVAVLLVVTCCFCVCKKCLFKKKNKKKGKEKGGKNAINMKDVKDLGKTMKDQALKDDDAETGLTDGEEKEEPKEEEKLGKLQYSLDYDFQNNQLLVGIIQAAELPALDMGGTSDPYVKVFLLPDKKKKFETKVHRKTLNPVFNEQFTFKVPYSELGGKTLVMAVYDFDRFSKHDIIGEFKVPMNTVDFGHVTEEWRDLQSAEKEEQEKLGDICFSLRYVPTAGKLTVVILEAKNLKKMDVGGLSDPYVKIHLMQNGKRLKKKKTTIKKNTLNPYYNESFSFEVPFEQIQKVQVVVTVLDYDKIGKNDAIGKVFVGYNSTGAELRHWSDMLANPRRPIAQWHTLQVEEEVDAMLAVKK
UniProt Q9R0K7: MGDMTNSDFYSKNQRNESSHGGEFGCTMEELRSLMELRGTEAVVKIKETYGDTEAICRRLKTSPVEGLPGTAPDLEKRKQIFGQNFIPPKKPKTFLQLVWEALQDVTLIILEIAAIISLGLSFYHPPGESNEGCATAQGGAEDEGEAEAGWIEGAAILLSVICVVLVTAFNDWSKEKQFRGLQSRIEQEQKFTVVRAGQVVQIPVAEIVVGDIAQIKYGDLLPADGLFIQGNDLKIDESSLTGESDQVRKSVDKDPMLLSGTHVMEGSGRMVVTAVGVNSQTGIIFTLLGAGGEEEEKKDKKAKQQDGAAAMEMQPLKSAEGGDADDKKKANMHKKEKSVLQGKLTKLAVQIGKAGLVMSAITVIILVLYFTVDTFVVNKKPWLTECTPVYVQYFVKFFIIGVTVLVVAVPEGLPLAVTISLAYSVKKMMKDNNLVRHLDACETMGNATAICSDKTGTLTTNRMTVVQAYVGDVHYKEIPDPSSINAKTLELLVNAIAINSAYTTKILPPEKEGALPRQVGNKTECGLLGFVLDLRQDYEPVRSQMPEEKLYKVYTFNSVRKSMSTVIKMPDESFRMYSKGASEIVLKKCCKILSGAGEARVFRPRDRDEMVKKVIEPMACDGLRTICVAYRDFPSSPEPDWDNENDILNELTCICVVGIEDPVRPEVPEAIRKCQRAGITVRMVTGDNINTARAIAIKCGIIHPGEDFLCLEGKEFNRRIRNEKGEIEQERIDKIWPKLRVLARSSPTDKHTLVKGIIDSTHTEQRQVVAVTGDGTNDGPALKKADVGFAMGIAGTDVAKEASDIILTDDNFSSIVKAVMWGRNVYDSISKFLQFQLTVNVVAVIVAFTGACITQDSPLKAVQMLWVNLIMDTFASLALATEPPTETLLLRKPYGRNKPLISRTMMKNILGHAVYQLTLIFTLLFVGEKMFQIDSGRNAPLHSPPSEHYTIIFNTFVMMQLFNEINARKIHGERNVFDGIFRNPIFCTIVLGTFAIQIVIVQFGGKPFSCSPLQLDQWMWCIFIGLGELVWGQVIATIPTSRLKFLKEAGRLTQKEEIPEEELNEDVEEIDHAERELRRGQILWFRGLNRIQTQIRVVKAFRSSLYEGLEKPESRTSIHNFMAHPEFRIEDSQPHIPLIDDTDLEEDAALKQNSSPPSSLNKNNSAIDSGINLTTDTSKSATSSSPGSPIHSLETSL
UniProt P43006: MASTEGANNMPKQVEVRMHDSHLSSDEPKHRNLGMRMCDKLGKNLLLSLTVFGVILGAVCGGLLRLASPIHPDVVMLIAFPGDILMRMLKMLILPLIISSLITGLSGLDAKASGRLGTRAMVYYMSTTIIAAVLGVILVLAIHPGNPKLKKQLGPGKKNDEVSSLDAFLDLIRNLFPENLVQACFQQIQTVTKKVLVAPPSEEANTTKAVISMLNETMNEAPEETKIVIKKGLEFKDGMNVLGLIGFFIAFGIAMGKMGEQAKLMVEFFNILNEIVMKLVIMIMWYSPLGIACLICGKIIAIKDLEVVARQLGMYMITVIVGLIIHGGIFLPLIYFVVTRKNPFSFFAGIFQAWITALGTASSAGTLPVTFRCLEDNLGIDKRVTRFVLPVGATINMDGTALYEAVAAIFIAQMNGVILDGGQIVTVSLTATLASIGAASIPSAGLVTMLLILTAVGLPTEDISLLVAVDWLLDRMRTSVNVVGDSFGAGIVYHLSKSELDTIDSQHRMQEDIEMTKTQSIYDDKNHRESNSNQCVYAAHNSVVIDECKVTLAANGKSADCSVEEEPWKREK
UniProt Q810U4, residues 30-1256: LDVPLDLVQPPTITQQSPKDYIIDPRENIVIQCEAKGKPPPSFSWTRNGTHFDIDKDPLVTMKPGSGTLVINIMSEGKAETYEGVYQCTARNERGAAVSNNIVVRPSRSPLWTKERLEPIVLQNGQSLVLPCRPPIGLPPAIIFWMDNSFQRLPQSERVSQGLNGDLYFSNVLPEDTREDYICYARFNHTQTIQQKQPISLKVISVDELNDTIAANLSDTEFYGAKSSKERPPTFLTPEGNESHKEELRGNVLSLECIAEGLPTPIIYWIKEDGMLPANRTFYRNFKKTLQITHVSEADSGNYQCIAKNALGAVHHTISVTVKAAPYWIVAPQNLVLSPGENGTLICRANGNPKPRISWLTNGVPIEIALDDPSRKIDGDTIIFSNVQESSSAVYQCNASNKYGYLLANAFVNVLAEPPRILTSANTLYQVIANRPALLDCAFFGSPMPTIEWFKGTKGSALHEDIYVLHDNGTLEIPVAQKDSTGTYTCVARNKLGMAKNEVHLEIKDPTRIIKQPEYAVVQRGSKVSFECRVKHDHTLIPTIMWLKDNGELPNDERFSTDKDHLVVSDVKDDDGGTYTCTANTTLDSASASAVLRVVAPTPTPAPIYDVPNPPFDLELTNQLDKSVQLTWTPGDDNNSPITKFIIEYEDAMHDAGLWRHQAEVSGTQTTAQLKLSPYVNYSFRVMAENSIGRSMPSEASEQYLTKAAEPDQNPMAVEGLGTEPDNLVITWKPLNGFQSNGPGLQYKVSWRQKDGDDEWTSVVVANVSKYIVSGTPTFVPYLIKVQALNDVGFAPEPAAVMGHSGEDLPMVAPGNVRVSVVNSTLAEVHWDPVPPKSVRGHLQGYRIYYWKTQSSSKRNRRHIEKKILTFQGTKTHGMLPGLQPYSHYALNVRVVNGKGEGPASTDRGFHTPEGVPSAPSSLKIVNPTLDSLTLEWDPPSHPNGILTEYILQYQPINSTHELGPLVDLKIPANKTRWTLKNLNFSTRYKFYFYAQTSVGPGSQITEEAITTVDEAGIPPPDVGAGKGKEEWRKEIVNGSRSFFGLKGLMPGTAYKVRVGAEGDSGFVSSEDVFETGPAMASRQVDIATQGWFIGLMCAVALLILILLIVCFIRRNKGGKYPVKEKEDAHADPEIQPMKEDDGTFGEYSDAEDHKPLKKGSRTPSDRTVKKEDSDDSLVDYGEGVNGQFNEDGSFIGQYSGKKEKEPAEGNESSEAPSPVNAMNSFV
UniProt Q8BG39: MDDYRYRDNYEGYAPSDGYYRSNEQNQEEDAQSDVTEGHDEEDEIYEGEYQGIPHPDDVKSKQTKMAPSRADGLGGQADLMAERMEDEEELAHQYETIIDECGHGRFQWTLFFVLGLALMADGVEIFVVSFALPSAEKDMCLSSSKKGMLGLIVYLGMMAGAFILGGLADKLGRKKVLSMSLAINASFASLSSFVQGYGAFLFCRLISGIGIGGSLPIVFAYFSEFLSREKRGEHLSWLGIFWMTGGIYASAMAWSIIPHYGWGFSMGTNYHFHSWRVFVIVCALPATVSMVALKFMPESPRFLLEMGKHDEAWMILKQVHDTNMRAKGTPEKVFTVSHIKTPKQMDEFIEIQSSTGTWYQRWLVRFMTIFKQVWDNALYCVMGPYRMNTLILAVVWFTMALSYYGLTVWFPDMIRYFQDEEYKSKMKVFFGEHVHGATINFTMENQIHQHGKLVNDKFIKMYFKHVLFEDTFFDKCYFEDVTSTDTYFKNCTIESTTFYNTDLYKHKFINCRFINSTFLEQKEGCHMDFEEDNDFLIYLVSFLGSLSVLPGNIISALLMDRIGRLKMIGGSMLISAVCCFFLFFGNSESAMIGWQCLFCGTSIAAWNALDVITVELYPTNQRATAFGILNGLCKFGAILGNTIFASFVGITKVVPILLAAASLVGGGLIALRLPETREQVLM
UniProt Q9Z218: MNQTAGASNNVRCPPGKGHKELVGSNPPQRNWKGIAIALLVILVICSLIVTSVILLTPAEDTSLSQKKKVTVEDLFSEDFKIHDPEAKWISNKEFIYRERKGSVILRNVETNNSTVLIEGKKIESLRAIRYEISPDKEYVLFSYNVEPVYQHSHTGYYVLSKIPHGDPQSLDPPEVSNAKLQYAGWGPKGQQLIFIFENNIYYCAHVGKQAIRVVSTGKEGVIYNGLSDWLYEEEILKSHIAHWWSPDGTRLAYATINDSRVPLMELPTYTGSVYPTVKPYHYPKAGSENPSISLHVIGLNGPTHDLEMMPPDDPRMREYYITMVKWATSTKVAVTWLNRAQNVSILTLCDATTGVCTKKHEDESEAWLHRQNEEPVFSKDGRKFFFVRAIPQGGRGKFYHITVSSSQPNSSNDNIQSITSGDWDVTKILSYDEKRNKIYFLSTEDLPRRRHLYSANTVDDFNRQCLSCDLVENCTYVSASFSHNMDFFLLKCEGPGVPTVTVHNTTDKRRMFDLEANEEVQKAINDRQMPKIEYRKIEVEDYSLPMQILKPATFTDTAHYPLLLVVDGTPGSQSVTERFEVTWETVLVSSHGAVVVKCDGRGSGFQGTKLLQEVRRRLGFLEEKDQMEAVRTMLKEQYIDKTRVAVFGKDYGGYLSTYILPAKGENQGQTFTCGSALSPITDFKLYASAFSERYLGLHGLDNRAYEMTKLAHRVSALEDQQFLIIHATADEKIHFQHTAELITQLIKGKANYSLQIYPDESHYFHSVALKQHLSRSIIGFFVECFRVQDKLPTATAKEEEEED
UniProt Q6NXK7: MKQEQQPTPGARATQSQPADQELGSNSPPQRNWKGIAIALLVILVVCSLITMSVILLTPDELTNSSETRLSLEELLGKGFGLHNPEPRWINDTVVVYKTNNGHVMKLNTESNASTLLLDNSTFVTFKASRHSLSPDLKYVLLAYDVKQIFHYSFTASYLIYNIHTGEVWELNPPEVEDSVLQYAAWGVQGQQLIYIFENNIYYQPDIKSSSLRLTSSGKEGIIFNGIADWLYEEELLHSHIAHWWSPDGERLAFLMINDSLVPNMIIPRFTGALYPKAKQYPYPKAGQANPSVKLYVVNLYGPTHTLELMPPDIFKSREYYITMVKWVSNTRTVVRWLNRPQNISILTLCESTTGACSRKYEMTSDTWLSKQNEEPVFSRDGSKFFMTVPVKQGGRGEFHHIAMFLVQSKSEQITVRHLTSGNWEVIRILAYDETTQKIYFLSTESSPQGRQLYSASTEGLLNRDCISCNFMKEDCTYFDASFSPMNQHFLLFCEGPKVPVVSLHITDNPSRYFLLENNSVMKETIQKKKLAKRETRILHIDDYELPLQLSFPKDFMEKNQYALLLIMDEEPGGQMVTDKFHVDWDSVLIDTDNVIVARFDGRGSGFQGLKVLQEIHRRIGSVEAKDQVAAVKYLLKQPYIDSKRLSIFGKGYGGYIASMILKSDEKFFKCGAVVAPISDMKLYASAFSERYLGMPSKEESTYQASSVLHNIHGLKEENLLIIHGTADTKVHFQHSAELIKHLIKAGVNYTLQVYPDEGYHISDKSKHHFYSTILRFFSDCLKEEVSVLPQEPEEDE
UniProt P60879: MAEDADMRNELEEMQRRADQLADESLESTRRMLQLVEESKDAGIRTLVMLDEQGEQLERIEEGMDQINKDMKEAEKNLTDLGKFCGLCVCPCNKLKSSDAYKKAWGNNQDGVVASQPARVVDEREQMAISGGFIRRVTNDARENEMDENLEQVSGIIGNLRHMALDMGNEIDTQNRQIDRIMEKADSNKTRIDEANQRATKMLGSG

B1: cell adhesion molecule 3 (protein, UniProt Q99N28 23-396)
chain: NLSQDDSQPWTSDETVVAGGTVVLKCQVKDHEDSSLQWSNPAQQTLYFGEKRALRDNRIQLVSSTPHELSISISNVALADEGEYTCSIFTMPVRTAKSLVTVLGIPQKPIITGYKSSLREKETATLNCQSSGSKPAAQLTWRKGDQELHGDQTRIQEDPNGKTFTVSSSVSFQVTREDDGANIVCSVNHESLKGADRSTSQRIEVLYTPTAMIRPEPAHPREGQKLLLHCEGRGNPVPQQYVWVKEGSEPPLKMTQESALIFPFLNKSDSGTYGCTATSNMGSYTAYFTLNVNDPSPVPSSSSTYHAIIGGIVAFIVFLLLILLIFLGHYLIRHKGTYLTHEAKGSDDAPDADTAIINAEGGQSGGDDKKEYFI
B2: myelin-associated glycoprotein (protein, UniProt P20917 20-627)
chain: GHWGAWMPSTISAFEGTCVSIPCRFDFPDELRPAVVHGVWYFNSPYPKNYPPVVFKSRTQVVHESFQGRSRLLGDLGLRNCTLLLSTLSPELGGKYYFRGDLGGYNQYTFSEHSVLDIVNTPNIVVPPEVVAGTEVEVSCMVPDNCPELRPELSWLGHEGLGEPTVLGRLREDEGTWVQVSLLHFVPTREANGHRLGCQAAFPNTTLQFEGYASLDVKYPPVIVEMNSSVEAIEGSHVSLLCGADSNPPPLLTWMRDGMVLREAVAKSLYLDLEEVTPGEDGVYACLAENAYGQDNRTVELSVMYAPWKPTVNGTVVAVEGETVSILCSTQSNPDPILTIFKEKQILATVIYESQLQLELPAVTPEDDGEYWCVAENQYGQRATAFNLSVEFAPIILLESHCAAARDTVQCLCVVKSNPEPSVAFELPSRNVTVNETEREFVYSERSGLLLTSILTIRGQAQAPPRVICTSRNLYGTQSLELPFQGAHRLMWAKIGPVGAVVAFAILIAIVCYITQTRRKKNVTESSSFSGGDNPHVLYSPEFRISGAPDKYESEKQRLGSERRLLGLRGESPELDLSYSHSDLGKRPTKDSYTLTEELAEYAEIRVK
B3: immunoglobulin superfamily member 8 (protein, UniProt Q8R366 26-611)
chain: RQVHVPRGPLYRVAGTAVSISCNVSDYEGPAQQDFEWFMYRPEAPATSLGIVSTKDSQFSYAVFGPRVASGDLQVQRLKGDSVVLKIARLQAQDSGFYECYTPSTDTQYLGNYSAKVELRVLPDELQVSAAPPGPRGRQAATSPSRLTVHEGQELALGCLAQTKTKKHTHLSVSFGRAIPEAPVGRATLQEVVGLRSDMAVEAGAPYAERLASGELRLSKEGTDRYRMVVGGAQAGDSGTYHCTAAEWIQDPDGSWVQVAEKRAVLAHVDVQTLSSQLAVTVGPGERRIGPGEPLELLCNVSGALPPPGRHAAYSVGWEMAPAGAPGPGRLVAQLDTEGIGSLGPGYEDRHIAMEKVASRTYRLRLEAARPADAGTYRCLAKAYVRGSGTRLREAASARSRPLPVHVREEGVVLEAVAWLAGGTVYRGETASLLCNISVRGGPPGLRLAASWWVERPEEGELSSGPAQLVGGVGQDGVAELGVRPGGGPVSVELVGPRSHRLRLHGLGPEDEGIYHCAPSAWVQHADYSWYQAGSARSGPVTVYPYTHAVDTLFVPLLVGTGVALVTGASVLATITCCFMKRMRKR
B4: Ncam2 (protein, UniProt O35136 20-837)
chain: LLQVTISLSKVELSVGESKFFTCTAIGEPESIDWYNPQGEKIISTQRVMLQKEGVRSRLTIYNANIEDAGIYRCQATDAKGQTQEATVVLEIYQKLTFREVVSPQEFKQGEDAEVVCRVSSSPAPAVSWLYHNEEVTTIPDNRFAVLANNNLQILNINKSDEGIYRCEGRVEARGEIDFRDIIVIVNVPPAIMMPQKSFNATAERGEEMTLTCKASGSPDPTISWFRNGKLIEENEKYILKGSNTELTVRNIINKDGGSYVCKATNKAGEDQKQAFLQVFVQPHILQLKNETTSENGHVTLVCEAEGEPVPEITWKRAIDGVMFSEGDKSPDGRIEVKGQHGRSSLHIRDVKLSDSGRYDCEAASRIGGHQRSMHLDIEYAPKFVSNQTMYYSWEGNPINISCDVTANPPASIHWRREKLLLPAKNTTHLKTHSVGRKMILEIAPTSDNDFGRYNCTATNRIGTRFQEYILELADVPSSPHGVKIIELSQTTAKISFNKPESHGGVPIHHYQVDVKEVASETWKIVRSHGVQTMVVLSSLEPNTTYEIRVAAVNGKGQGDYSKIEIFQTLPVREPSPPSIHGQPSSGKSFKISITKQDDGGAPILEYIVKYRSKDKEDQWLEKKVQGNKDHIILEHLQWTMGYEVQITAANRLGYSEPTVYEFSMPPKPNIIKDTLFNGLGLGAIIGLGVAALLLILVVTDVSCFFIRQCGLLMCITRRMCGKKSGSSGKSKELEEGKAAYLKDGSKEPIVEMRTEDERITNHEDGSPVNEPNETTPLTEPEKLPLKEENGKEVLNAETIEIKVSNDIIQSKEDDIKA
B5: contactin-1 (protein, UniProt P12960 21-1001)
chain: DFTWHRRYGHGVSEEDKGFGPIFEEQPINTIYPEESLEGKVSLNCRARASPFPVYKWRMNNGDVDLTNDRYSMVGGNLVINNPDKQKDAGVYYCLASNNYGMVRSTEATLSFGYLDPFPPEERPEVKVKEGKGMVLLCDPPYHFPDDLSYRWLLNEFPVFITMDKRRFVSQTNGNLYIANVESSDRGNYSCFVSSPSITKSVFSKFIPLIPIPERTTKPYPADIVVQFKDIYTMMGQNVTLECFALGNPVPDIRWRKVLEPMPSTAEISTSGAVLKIFNIQLEDEGLYECEAENIRGKDKHQARIYVQAFPEWVEHINDTEVDIGSDLYWPCIATGKPIPTIRWLKNGYSYHKGELRLYDVTFENAGMYQCIAENAYGSIYANAELKILALAPTFEMNPMKKKILAAKGGRVIIECKPKAAPKPKFSWSKGTEWLVNSSRILIWEDGSLEINNITRNDGGIYTCFAENNRGKANSTGTLVITNPTRIILAPINADITVGENATMQCAASFDPALDLTFVWSFNGYVIDFNKEITHIHYQRNFMLDANGELLIRNAQLKHAGRYTCTAQTIVDNSSASADLVVRGPPGPPGGLRIEDIRATSVALTWSRGSDNHSPISKYTIQTKTILSDDWKDAKTDPPIIEGNMESAKAVDLIPWMEYEFRVVATNTLGTGEPSIPSNRIKTDGAAPNVAPSDVGGGGGTNRELTITWAPLSREYHYGNNFGYIVAFKPFDGEEWKKVTVTNPDTGRYVHKDETMTPSTAFQVKVKAFNNKGDGPYSLVAVINSAQDAPSEAPTEVGVKVLSSSEISVHWKHVLEKIVESYQIRYWAGHDKEAAAHRVQVTSQEYSARLENLLPDTQYFIEVGACNSAGCGPSSDVIETFTRKAPPSQPPRIISSVRSGSRYIITWDHVVALSNESTVTGYKILYRPDGQHDGKLFSTHKHSIEVPIPRDGEYVVEVRAHSDGGDGVVSQVKISGVSTLS
B6: neurofascin (protein, UniProt Q810U3 25-1240)
chain: IEIPMDPSIQNELTQPPTITKQSVKDHIVDPRDNILIECEAKGNPAPSFHWTRNSRFFNIAKDPRVSMRRRSGTLVIDFRSGGRPEEYEGEYQCFARNKFGTALSNRIRLQVSKSPLWPKENLDPVVVQEGAPLTLQCNPPPGLPSPVIFWMSSSMEPITQDKRVSQGHNGDLYFSNVMLQDMQTDYSCNARFHFTHTIQQKNPFTLKVLTTRGVAERTPSFMYPQGTSSSQMVLRGMDLLLECIASGVPTPDIAWYKKGGDLPSNKAKFENFNKALRITNVSEEDSGEYFCLASNKMGSIRHTISVRVKAAPYWLDEPKNLILAPGEDGRLVCRANGNPKPTVQWMVNGEPLQSAPPNPNREVAGDTIIFRDTQISSRAVYQCNTSNEHGYLLANAFVSVLDVPPRMLSARNQLIRVILYNRTRLDCPFFGSPIPTLRWFKNGQGSNLDGGNYHVYENGSLEIKMIRKEDQGIYTCVATNILGKAENQVRLEVKDPTRIYRMPEDQVAKRGTTVQLECRVKHDPSLKLTVSWLKDDEPLYIGNRMKKEDDSLTIFGVAERDQGSYTCMASTELDQDLAKAYLTVLADQATPTNRLAALPKGRPDRPRDLELTDLAERSVRLTWIPGDDNNSPITDYVVQFEEDQFQPGVWHDHSRFPGSVNSAVLHLSPYVNYQFRVIAVNEVGSSHPSLPSERYRTSGAPPESNPSDVKGEGTRKNNMEITWTPMNATSAFGPNLRYIVKWRRRETRETWNNVTVWGSRYVVGQTPVYVPYEIRVQAENDFGKGPEPDTIIGYSGEDLPSAPRRFRVRQPNLETINLEWDHPEHPNGILIGYILRYVPFNGTKLGKQMVENFSPNQTKFSVQRADPVSRYRFSLSARTQVGSGEAATEESPAPPNEATPTAAPPTLPPTTVGTTGLVSSTDATALAATSEATTVPIIPTVVPTTVATTIATTTTTTAATTTTTTTESPPTTTAGTKIHETAPDEQSIWNVTVLPNSKWANITWKHNFRPGTDFVVEYIDSNHTKKTVPVKAQAQPIQLTDLFPGMTYTLRVYSRDNEGISSTVITFMTSTAYTNNQADIATQGWFIGLMCAIALLVLILLIVCFIKRSRGGKYPVREKKDVPLGPEDPKEEDGSFDYSDEDNKPLQGSQTSLDGTIKQQESDDSLVDYGEGGEGQFNEDGSFIGQYTVKKDKEETEGNESSEATSPVNAIYSLA

Target: cellular prion protein (Major prion protein) (mouse (endogenous in brain)) (UniProt P04925)
Assay: affinity purification with mass spectrometry

Molecule | binding
peptidyl-prolyl cis-trans isomerase A (from UniProt P17742 1-164) | binds
neural cell adhesion molecule 1 (from UniProt P13595 20-1115) | binds
Stx1b (from UniProt P61264 1-288) | binds
Syt1 (from UniProt P46096 1-421) | binds
ubiquitin-like modifier-activating enzyme 1 (from UniProt Q02053 1-1058) | binds
Atp2b1 (from UniProt G5E829 1-1220) | binds
Atp2b2 (from UniProt Q9R0K7 1-1198) | binds
neural cell adhesion molecule L1 (from UniProt P11627 20-1260) | binds
excitatory amino acid transporter 2 (from UniProt P43006 1-572) | binds
neuronal cell adhesion molecule (from UniProt Q810U4 30-1256) | binds
Sv2b (from UniProt Q8BG39 1-683) | binds
dipeptidyl peptidase Dpp6 (from UniProt Q9Z218 1-804) | binds
dipeptidyl peptidase Dpp10 (from UniProt Q6NXK7 1-797) | binds
Atp6v0a1 (from UniProt Q9Z1G4 1-839) | binds
Snap25 (from UniProt P60879 1-206) | binds
B1 | binds
B2 | binds
B3 | binds
B4 | binds
B5 | binds
B6 | binds

No constants are given. Whether binding was seen depends on the method and setting. Binding seen in cells or lysates may run through a third protein. A yes stands for co-enrichment or nearness to the bait. Other partners may have been found.
